For part of these data: Weaker means in comparison with the reference protein, sequence or condition of that experiment. Protein sequences can lack the tags named with them. For part of these data: The exact form of at least one protein or probe is not confirmed. For part of these data: At least one verdict rests on a figure or table, not on a statement of the authors.

Consider 2 sequences from paper doi:10.1101/2023.08.16.553474.

Experiment in all cases: fluorescence anisotropy
(Polarisation of emitted light reports the rotation of a fluorescent probe.)

For one data set, the target named is T1, MYCN FL (UniProt P04198).
T1 sequence (looked up): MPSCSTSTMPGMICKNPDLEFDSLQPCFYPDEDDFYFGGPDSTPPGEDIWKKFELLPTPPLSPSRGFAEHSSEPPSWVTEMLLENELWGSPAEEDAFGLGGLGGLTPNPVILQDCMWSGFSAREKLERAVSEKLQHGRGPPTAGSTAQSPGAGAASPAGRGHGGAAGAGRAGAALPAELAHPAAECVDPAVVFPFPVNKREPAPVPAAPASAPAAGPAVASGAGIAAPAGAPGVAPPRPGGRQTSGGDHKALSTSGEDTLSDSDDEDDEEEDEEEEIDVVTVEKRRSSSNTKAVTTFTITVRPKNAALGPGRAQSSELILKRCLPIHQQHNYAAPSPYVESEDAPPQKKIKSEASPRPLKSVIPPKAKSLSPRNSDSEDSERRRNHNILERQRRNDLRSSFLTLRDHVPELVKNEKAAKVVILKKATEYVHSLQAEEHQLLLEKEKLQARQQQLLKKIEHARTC
The settings on record: residues 1-464; letters put together from the description.

The next data set has as its target T2, MYCN 1-154 (UniProt P04198).
T2 sequence (looked up): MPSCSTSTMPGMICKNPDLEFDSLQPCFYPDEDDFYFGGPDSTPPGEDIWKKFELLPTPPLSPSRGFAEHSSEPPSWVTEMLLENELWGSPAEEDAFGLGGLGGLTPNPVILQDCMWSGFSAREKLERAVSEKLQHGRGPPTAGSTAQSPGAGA
The settings on record: residues 1-154.

In another data set the target is T3, MYCN 1-154 dMBI del45-65 (UniProt P04198).
T3 sequence (looked up): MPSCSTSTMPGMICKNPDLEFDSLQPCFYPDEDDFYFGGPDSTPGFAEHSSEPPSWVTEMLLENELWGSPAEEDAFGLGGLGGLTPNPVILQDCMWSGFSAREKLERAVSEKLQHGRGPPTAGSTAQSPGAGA
The settings on record: residues 1-154.

Consider “TGCTGGGATGGTCATGGTGGGTGACCCTGGGATGGCCGCGGTGGGTGACCCTGGAATGGT (double strand) [UGhigh dsDNA]”, for which the binding result with MYCN FL is “binds more weakly”. Regarding “UGCUGGGAUGGUCAUGGUGGGUGACCCUGGGAUGGCCGCGGUGGGUGACCCUGGAAUGGU [UGhigh RNA]”, the binding result was “binds” with MYCN 1-154 and “binds more weakly” in the data set with MYCN 1-154 dMBI del45-65.
